Values of other authors, collected in patent US20240148910A1, “HYDROPORPHYRIN-DOPED NEAR-INFRARED-EMITTING POLYMER DOTS FOR CELLULAR FLUORESCENCE IMAGING” (UNIVERSITY OF MARYLAND, BALTIMORE COUNTY, priority 2022, published 2024).
At least one compound was matched to its structure with a doubt left.

Settings: air-equilibrated toluene

C1=Cc2nc1c(-c1ccccc1)c1nc(c(-c3ccccc3)c3ccc([nH]3)c(-c3ccccc3)c3ccc([nH]3)c2-c2ccccc2)C=C1 [TPP, tetraphenylporphyrin]
Φf of standard: 0.070
